# Earlier results in patent US20160024051A1, “SALTS AND SOLID FORMS OF ISOQUINOLINONES AND COMPOSITION COMPRISING AND METHODS OF USING THE SAME” (INFINITY PHARMACEUTICALS, INC., priority 2013, published 2016).
# For at least one compound, name, drawing or mass did not settle the structure.
# Test system: haematological malignancies
# Details: cited from earlier work
smiles,measurement,setting,value
CC[C@H](Nc1ncnc2[nH]cnc12)c1nc2cccc(F)c2c(=O)n1-c1ccccc1 [CAL-101],single agent clinical activity in mantle cell lymphoma and refractory non Hodgkin's lymphoma,"human, in vivo",active
same,clinical activity in CLL,patients with poor prognostic characteristics,showed activity in CLL
